Paper PMC5860104
Results are given in words; binding and its absence hold for the method and conditions named. Binding seen in cells or lysates may run through a third protein. Binding can be weak; no strength is given. Sequences can lack the tags named with a protein.

Target: T1, GST-PI4KIIαK152A (human) (UniProt Q9BTU6)
T1 sequence: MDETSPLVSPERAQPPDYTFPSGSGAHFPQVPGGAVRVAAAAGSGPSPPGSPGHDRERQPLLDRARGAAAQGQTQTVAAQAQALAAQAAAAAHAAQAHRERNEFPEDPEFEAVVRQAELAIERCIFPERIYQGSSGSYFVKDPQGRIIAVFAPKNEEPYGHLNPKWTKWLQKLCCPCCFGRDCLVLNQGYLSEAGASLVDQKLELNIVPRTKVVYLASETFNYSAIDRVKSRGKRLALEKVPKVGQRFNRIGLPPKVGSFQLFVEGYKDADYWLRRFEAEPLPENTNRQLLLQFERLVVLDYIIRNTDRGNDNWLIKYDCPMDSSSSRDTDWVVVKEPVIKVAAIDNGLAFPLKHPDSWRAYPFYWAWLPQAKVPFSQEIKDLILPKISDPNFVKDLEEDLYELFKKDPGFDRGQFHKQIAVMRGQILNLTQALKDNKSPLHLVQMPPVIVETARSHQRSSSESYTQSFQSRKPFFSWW
Experiment: pull-down; GST pull-down: lysate (RIPA buffer) of MCF-7 cells transfected with GFP-PKD for 24 h, pulled down with exogenous GST, GST-PI4KIIα WT or GST-PI4KIIαK152A expressed in E. coli; only the target purified

binding: binds weakly
Substance: human GFP-tagged PKD (enzyme)
